Data reported in patent publication US20150071855A1 (LONDON HEALTH SCIENCES CENTRE RESEARCHING, published 2015).
These are yes or no findings as the source states them, for the method shown. Some results given as binding are weak or reduced against the parent protein; the word gives no strength. Tags and fused reporters may be left off the sequences shown.

B1: WYKLHPTM (peptide)
peptide: WYKLHPTM
B2: HMYFLLGH (peptide)
peptide: HMYFLLGH
B3: DPYDHEFR (peptide)
peptide: DPYDHEFR
B4: AYYEEAYE (peptide)
peptide: AYYEEAYE
B5: RYVDHEDW (peptide)
peptide: RYVDHEDW
B6: EWELHAEE (peptide)
peptide: EWELHAEE
B7: SQSSMYPS (peptide)
peptide: SQSSMYPS
B8: RYQLHHPR (peptide)
peptide: RYQLHHPR

target: T1, recombinant GST-EGFL7 protein (UniProt Q9UHF1 24-273); experiment: OBOC bead library screen with GST-EGFL7 on magnetic beads, then cell-based screen with EGFL7-positive and EGFL7-negative cells
T1 construct: Expressed in Sf21 insect cells by baculovirus and purified on glutathione-agarose; The sense primer encodes MRGSQEV, which fits human EGFL7; also called purified EGFL7 protein; recombinant EGFL7; not shown: glutathione-S-transferase (GST) tag from the pDEST20 plasmid (Invitrogen); TEV site/linker region carried over from pENTR/TEV/D-TOPO
T1 sequence (looked up): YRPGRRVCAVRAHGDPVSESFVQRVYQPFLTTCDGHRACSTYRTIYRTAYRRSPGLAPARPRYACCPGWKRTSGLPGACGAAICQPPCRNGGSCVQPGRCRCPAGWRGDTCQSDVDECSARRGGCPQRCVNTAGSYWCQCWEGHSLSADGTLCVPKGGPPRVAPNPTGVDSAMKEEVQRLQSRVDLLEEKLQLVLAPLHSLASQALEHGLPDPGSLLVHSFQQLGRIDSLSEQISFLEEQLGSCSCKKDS

| Binder | binding |
| --- | --- |
| B1 | binds |
| B2 | binds |
| B3 | binds |
| B4 | binds |
| B5 | binds |
| B6 | binds |
| B7 | binds |
| B8 | binds |
